This data set in a line: Pharmacokinetic parameters after i.v. administration in rats. Format: in vivo. Conditions: extraction from rat plasma for LCMS. The source says: Methods are as previously reported (Hill et al., ACS Med. Chem. Lett. 2014, 5(10), 1148-51; Lohman et al., Chem. Commun. (Camb), 2019, 55(89), 13362-13365; Neilsen et al., Org. Lett., 2012, 14(22), 5720-3; Neilsen et al, Chembiochem, 2015, 16(16), 2289-93; Justyna et al., Current Drug Targets, 2013, 14(7), 798-816)). Rats were surgically implanted with a jugular vein catheter (sterile polyethylene, o.d. 0.96 mm i.d. 0.58 mm, Microtube Extrusions, Aust.) and allowed to recover overnight. Baseline blood samples (t=0) were taken prior to peptide administration directly from the indwelling jugular vein catheter. Peptide was administered directly via the catheter (i.v route), followed by a 200 μL chaser volume of heparinised saline (20 U/mL) to flush the line. Further blood samples (200 μL/sample) were collected directly from the intravenous catheter at t=1, 5 15, 30, 60, 90 120 as 180 minutes post-administration. Volumes taken were replaced with heparinised saline to avoid hypovolaemia. […]
Samples were analysed using MassHunter Software packages, and area under the curve (AUC) was measured for each peak of interest in the MRM, as a direct measure of concentration of compound ions in the sample. […] Data was analysed using MS Excel software. […] Plasma half-life, volume of distribution and clearance were determined from the steady-state elimination phase.

SMILES strings stand for the structures. Square brackets hold non-standard residues; d marks the D form. Peptide text beside a SMILES is read from it. Phe(4-NO2) = N[C@@H](Cc1ccc([N+](=O)[O-])cc1)C(=O)O; Phe(4-Cl) = N[C@@H](Cc1ccc(Cl)cc1)C(=O)O; NMeR = CN[C@@H](CCCNC(=N)N)C(=O)O; Aoc = NCCCCCCCC(=O)O; Sar = CNCC(=O)O

In the case of `CC(C)C[C@H](NC(=O)[C@H](Cc1ccc([N+](=O)[O-])cc1)NC(=O)CN(C)C(=O)[C@@H](N)Cc1ccc(O)cc1)C(=O)N(C)[C@@H](CCCNC(=N)N)C(=O)N(C)[C@@H](CCCNC(=N)N)C(N)=O` [SEQ ID NO. 19, NH2-Tyr-Sar-(4-NO2)Phe-Leu-NMA-NMA-NH2] (H-Y[Sar][Phe(4-NO2)]L[NMeR][NMeR]-NH2), the “Extract efficiency (%)” value was determined as 54.4%. Turning to `CC(C)C[C@H](NC(=O)[C@H](Cc1ccc(Cl)cc1)NC(=O)CN(C)C(=O)[C@@H](N)Cc1ccc(O)cc1)C(=O)N[C@@H](CCCNC(=N)N)C(=O)N[C@H](CCCNC(=N)N)C(=O)NCCCCCCCC(N)=O` [SEQ ID NO. 24, NH2-Tyr-Sar-(4-Cl)Phe-Leu-Arg-DArg-C7H14-CONH2] (H-Y[Sar][Phe(4-Cl)]LR[dR][Aoc]-NH2), the “Extract efficiency (%)” value was 62.4%.
